Laboratory results from paper PMC6057324.
No constants are given. Whether binding was seen depends on the method and setting. In cells and extracts the contact can be indirect. Some entries that bind do so weakly or less than the wild type. Tags and fused reporters may be left off the sequences shown.

The chains behind the UniProt entries cited, without tags or fusion partners.
UniProt Q9UJV9: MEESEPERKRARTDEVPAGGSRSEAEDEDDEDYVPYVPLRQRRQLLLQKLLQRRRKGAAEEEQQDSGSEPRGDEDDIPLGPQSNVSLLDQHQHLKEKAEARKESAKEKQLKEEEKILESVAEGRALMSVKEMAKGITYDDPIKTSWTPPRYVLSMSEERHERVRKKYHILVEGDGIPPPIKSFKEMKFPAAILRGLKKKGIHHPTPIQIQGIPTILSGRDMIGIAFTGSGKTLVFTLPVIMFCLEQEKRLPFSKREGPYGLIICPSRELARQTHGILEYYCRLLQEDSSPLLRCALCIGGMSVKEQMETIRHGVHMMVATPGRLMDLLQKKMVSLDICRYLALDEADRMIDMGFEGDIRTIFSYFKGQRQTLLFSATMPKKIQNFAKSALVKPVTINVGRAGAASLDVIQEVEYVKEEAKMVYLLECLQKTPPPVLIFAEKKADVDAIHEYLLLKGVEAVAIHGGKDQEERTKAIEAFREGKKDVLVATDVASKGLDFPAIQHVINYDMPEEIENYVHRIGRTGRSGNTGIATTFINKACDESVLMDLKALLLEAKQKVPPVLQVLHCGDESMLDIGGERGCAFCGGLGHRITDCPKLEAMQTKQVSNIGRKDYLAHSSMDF
UniProt Q86WV6: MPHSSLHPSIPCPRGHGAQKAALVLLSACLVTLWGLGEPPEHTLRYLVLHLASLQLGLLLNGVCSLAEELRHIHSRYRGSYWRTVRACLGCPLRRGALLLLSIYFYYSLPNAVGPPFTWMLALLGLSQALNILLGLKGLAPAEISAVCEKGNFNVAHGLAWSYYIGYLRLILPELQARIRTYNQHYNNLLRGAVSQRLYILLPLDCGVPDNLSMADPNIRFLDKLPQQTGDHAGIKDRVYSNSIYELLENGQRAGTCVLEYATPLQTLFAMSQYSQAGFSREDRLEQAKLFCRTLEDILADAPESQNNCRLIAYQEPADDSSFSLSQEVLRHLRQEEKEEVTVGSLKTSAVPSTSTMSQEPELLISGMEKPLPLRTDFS
UniProt Q8N884: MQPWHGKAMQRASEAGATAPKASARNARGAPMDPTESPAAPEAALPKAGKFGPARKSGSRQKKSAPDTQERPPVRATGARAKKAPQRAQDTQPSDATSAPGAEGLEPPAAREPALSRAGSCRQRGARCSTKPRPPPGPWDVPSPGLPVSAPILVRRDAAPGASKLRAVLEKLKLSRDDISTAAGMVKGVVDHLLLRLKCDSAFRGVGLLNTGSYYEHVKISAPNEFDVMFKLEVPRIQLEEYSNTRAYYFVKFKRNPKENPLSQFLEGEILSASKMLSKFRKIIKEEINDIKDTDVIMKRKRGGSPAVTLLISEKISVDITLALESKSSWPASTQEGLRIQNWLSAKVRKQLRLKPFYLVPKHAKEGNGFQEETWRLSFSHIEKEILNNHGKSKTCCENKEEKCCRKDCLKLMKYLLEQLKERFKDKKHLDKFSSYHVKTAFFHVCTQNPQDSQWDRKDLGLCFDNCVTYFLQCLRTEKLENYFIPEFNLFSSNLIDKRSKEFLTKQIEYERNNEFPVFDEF
UniProt Q7Z434: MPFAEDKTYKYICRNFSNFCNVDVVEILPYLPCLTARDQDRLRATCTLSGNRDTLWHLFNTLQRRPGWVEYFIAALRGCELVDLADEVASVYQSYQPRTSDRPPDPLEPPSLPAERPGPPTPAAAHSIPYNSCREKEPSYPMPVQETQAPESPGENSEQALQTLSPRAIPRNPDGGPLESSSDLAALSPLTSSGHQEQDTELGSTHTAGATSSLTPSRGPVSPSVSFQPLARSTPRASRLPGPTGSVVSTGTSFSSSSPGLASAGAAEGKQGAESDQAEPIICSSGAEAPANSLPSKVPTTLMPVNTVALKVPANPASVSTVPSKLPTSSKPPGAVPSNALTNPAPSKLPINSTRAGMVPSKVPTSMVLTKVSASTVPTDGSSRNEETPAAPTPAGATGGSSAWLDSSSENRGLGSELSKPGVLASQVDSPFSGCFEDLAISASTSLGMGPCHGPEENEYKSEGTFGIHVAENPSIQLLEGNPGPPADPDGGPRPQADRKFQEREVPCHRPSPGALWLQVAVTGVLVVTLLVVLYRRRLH

target: T1, HA-tagged SLC15A3 (UniProt Q8IY34); experiment: co-IP; 293T cotransfected with HA-SLC15A3 and Flag/DDK1-tagged partner; lysis in 20 mM Tris-HCl pH 7.4, 150 mM NaCl, 1 mM EDTA, 1% Triton X-100; anti-HA antibody and protein A/G plus agarose, 4°C, one hour; washed three times in lysis buffer with 0.5 M NaCl; Western blot for Flag/DDK1 or HA
T1 sequence: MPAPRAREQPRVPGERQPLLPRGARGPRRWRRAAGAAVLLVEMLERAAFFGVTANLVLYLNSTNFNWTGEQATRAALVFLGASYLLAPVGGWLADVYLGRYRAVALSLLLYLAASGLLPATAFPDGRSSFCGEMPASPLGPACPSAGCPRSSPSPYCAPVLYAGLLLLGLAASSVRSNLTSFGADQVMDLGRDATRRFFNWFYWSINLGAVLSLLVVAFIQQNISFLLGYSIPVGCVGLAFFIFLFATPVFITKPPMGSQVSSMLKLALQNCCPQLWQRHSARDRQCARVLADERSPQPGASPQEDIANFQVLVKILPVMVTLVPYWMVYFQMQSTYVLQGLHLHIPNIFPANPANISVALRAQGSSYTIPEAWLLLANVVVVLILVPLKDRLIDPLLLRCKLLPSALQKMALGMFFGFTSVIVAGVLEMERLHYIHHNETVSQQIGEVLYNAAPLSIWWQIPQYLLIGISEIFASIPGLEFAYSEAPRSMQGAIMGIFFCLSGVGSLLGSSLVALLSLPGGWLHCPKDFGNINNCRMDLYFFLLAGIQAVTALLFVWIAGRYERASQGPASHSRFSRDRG

binding, binds:
Flag/DDK1-tagged DDX41 (from UniProt Q9UJV9 1-622), Myc-DDK1-tagged STING (from UniProt Q86WV6 1-379), Flag/DDK1-tagged cGAS (from UniProt Q8N884 1-522), Myc-DDK1-tagged MAVS (from UniProt Q7Z434 1-540)
